Measured values as given in paper PMC3281193, “Quinol derivatives as potential trypanocidal agents” (Bioorganic & Medicinal Chemistry, 2012).
Some entries repeat one wording, which the source may state once for all of them.

How the values were obtained:
[1] = system: blood stream form T. brucei; test: 96-well HTS assay against blood stream form T. brucei; format: cell-based, Trypanosoma brucei; details: species selectivity; for Spec. select.: EC50 (MRC5)/EC50 (T. brucei): Table 2
Method: (§1) The 96-well HTS assays against blood stream form T. brucei[38] and MRC5 cells were carried out as reported previously.[39] The manual assays performed on the AT1 double knock out T. brucei and wild type T. brucei were conducted as described by Jones et al.[39]

[2] = system: T. brucei AT1 KO; test: 96-well manual assay on AT1 double knock out T. brucei (P2 transporter knock out); format: cell-based, Trypanosoma brucei; details: wild type versus P2 knock out strain
Method: In order to determine if analogues 35, 38, 44 and 46 are substrates for the P2 transporter they were assayed against a line of T. brucei lacking the gene which codes for the P2 transporter (Table 2).[33] […] Compounds 8 and 19,[25] which contain the triazole and indolyl quinol pharmacophore respectively, but lack a P2 motif, served as negative controls.
as §1

Row | Structure (SMILES) | Spec. select.: EC50 (MRC5)/EC50 (T. brucei) [1] | Spec. select: EC50 (MRC5)/EC50 (T. brucei) ([1]; Table 1) | substrate for the P2 transporter protein [2]
1 | COC(=O)CCc1ccc(S(=O)(=O)n2c(C3(O)C=CC(=O)C=C3)cc3ccccc32)cc1 [Compound 19, Methyl 3-(4-((2-(1-hydroxy-4-oxocyclohexa-2,5-dien-1-yl)-1H-indol-1-yl)sulfonyl)phenyl) propanoate] | 1.8 | – | –
2 | CC(=O)OC[C@H]1O[C@@H](n2cc(C3(O)C=CC(=O)C=C3)nn2)[C@H](OC(C)=O)[C@@H](OC(C)=O)[C@H]1OC(C)=O [Compound 11] | – | >5 | –
3 | Nc1nc(N)nc(NCCCOC(=O)CCc2ccc(S(=O)(=O)n3c(C4(O)C=CC(=O)C=C4)cc4ccccc43)cc2)n1 [Compound 44, 3-((4,6-Diamino-1,3,5-triazin-2-yl)amino)propyl 3-(4-((2-(1-hydroxy-4-oxocyclohexa-2,5-dien-1-yl)-1H-indol-1-yl)sulfonyl)phenyl)propanoate] | – | – | not substrates for the P2 transporter protein
4 | Nc1nc(N)nc(-n2cc(C3(O)C=CC(=O)C=C3)nn2)n1 [Compound 38, 4-(1-(4,6-Diamino-1,3,5-triazin-2-yl)-1H-1,2,3-triazol-4-yl)-4-hydroxycyclohexa-2,5-dienone] | >8 | – | not substrates for the P2 transporter protein
5 | COc1ccc(-n2cc(C3(O)C=CC(=O)C=C3)nn2)cc1 [Compound 8] | 2.4 | – | –
6 | N=C(N)c1ccc(-n2cc(C3(O)C=CC(=O)C=C3)nn2)cc1 [Compound 35, 4-(4-(1-Hydroxy-4-oxocyclohexa-2,5-dienyl)-1H-1,2,3-triazol-1-yl)benzimidamide] | >5 | – | not substrates for the P2 transporter protein
7 | Nc1nc(N)nc(NCCCNC(=O)CCc2ccc(S(=O)(=O)n3c(C4(O)C=CC(=O)C=C4)cc4ccccc43)cc2)n1 [Compound 46, N-(3-((4,6-Diamino-1,3,5-triazin-2-yl)amino)propyl)-3-(4-((2-(1-hydroxy-4-oxocyclohexa-2,5-dien-1-yl)-1H-indol-1-yl)sulfonyl)phenyl)propanamide] | – | – | not substrates for the P2 transporter protein
